At least one read-out could not be matched to a standard name with certainty.
Columns and labels:
PLCγ2-cSH2 = target: T1, PLCγ2-cSH2 (Homo sapiens, UniProt P16885); assay: Fluorescence quenching vesicle binding assay, PLCγ2-cSH2; details: Table 2; PLCγ2-cSH2 binding to POPC/POPS/PIP3/dabsyl-PE vesicles
T1 construct: polyhistidine (N); made in house; host or cells: Escherichia coli BL21 (DE3) pLysS
T1 sequence (P16885 646-735 limits assumed): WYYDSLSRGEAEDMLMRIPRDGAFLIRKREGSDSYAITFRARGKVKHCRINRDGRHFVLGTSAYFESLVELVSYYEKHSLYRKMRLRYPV
Description: (§1) The membrane-binding assay is based on fluorescence quenching of EGFP fused to a SH2 domain by a dark quencher containing lipid, dabsyl-PE, incorporated in lipid vesicles. The plate reader assay was performed using the Synergy™ Neo spectrofluorometer at 25° C. Nontreated black polystyrene 96-well plates (Corning) were used. Protein (10-50 nM) with the increasing concentration of vesicles with a given lipid composition in 20 mM Tris buffer, pH 7.4, containing 0.16 M NaCl was added to each row of wells and the EGFP fluorescence emission at 516 nm was measured with excitation set at 485 nm. Z′ factor for the assay system was determined as described^74. Imax and IC50 values of inhibitors were determined using the equation, I=Imax/(1+IC50/[I]) where I and [I] indicate % inhibition and inhibitor concentration, respectively. […]
(§2) We also optimized a recently developed fluorescence quenching-based lipid-binding assay^47 for high-throughput screening of these molecules for their inhibitory activity against the PIP3-SH2 interaction. Specifically, we expressed SH2 domains as EGFP-tagged proteins and directly quantified their membrane binding by monitoring the quenching of EGFP fluorescence emission intensity by a dark quencher-containing lipid, N-dimethylaminoazo-benzenesulfonyl-phosphatidylethanolamine (dabsyl-PE), incorporated in the vesicles. […]

BLNK-SH2 = target: T2, BLNK-SH2 (Homo sapiens, UniProt Q8WV28); assay: Fluorescence quenching vesicle binding assay, BLNK-SH2; details: Table 2; BLNK-SH2 binding to POPC/POPS/PIP3/dabsyl-PE vesicles
T2 construct: All SH2 domain constructs were cloned into the pRSET-B vector; polyhistidine (N); made in house; host or cells: Escherichia coli BL21 (DE3) pLysS
T2 sequence (Q8WV28 346-453 limits assumed): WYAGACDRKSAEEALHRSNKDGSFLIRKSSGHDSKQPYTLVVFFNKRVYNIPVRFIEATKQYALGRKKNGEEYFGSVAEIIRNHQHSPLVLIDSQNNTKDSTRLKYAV
Description: as §1, §2

CCOC(=O)NC(C(=O)OCC)c1cccc(Cl)n1 (centres unmarked) [VG370]
Imax (%) (PLCγ2-cSH2): 50 ± 5%

OCCc1c(Cl)cncc1I [VG594]
Imax (%) (BLNK-SH2): 45 ± 5%

From patent US20250346582A1, “SPLEEN TYROSINE KINASE INHIBITORS AND METHODS OF USE THEREOF” (THE BOARD OF TRUSTEES OF THE UNIVERSITY OF ILLINOIS, priority 2022, published 2025)
